Assay results from patent US8551718B2 (Suven Life Science Limited, priority 2009, dated 2013).

By UniProt entry, the sequences of proteins in these tests, tags left out.
UniProt P28223, whole entry: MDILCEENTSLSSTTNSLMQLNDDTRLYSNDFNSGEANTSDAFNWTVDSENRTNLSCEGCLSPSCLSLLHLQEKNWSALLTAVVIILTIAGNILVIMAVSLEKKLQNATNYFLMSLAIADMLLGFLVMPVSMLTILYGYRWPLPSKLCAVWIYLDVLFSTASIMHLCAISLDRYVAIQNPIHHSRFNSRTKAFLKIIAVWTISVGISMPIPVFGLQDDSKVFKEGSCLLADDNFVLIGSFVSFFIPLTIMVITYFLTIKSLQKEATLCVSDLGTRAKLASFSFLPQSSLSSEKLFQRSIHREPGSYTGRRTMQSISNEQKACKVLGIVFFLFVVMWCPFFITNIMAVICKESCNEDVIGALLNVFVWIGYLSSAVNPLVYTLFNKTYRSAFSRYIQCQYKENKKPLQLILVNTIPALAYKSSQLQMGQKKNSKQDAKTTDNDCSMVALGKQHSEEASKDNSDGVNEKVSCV

Assays:
5-HT2A receptor [1] = target: T1, 5-HT2A receptor (Homo sapiens, UniProt P28223); assay: CRE-Luc reporter gene functional assay in CHO-5HT2A cells; format: cell-based; set-up: expressed in transfected cells; host or cells: CHO cells (CHO-5HT2A), co-transfected with CRE-Luc reporter
5-HT2A receptor [2] = target: T1, 5-HT2A receptor; assay: Radioligand (SPA) competition binding assay, [3H]Ketanserin

O=C(O)COCCN1CCN(C(c2ccccc2)c2ccc(Cl)cc2)CC1 (stereo not drawn) [Cetirizine]
> 10 µM: IC50 (5-HT2A receptor [1]) | Kb (5-HT2A receptor [1]) | Ki (5-HT2A receptor [2])
